Experimental data: PubChem BioAssay AID1671195 (Yale University, 2021)
Here is an unselected part of about 22,000 deposited reagents. About 1,510 of all reagents (6.9%) count as active. 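Active includes knockdowns raising or lowering LDL uptake; positive z-scores mean more uptake, negative mean less.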 A number with no mark means an inactive call. Reagent sequences are not shown.

- Purpose: 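Genes whose knockdown alters LDL uptake in liver cancer cells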 (primary screen)
- Cell system: human Huh7 hepatoma cells
- Knock-down reagent: siRNA pool against human genes, 18 nM
- Timing: about 2 to 2.5 days of knockdown, then 8 h LDL uptake
- Challenge: DiI-labelled LDL at 30 µg/ml for 8 h, in lipoprotein-deficient serum medium
- Detection: 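Fluorescent LDL signal imaged in cells, scaled to the plate median, robust z-score for each replicate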
- Direction: robust z-score: higher = more LDL uptake after knockdown
- Call rule: 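Active when two or more replicates show a robust z-score above 2 or below -2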

DPCD (GeneID 25911)
- robust z-score, replicate 1: 1.12
- robust z-score, replicate 2: 1.34
- robust z-score, replicate 3: 1.07

MIPOL1 (GeneID 145282)
- robust z-score, replicate 1: -0.25
- robust z-score, replicate 2: -0.524
- robust z-score, replicate 3: 0.154

KBTBD7 (GeneID 84078)
- robust z-score, replicate 1: -0.11
- robust z-score, replicate 2: 0.226
- robust z-score, replicate 3: 0.965

SDK2 (GeneID 54549)
- robust z-score, replicate 1: -1.79
- robust z-score, replicate 2: -1.6
- robust z-score, replicate 3: -3.25

ATAD3A (GeneID 55210)
- robust z-score, replicate 1: -1.09
- robust z-score, replicate 2: -0.79
- robust z-score, replicate 3: -1.19

SPC24 (GeneID 147841)
- robust z-score, replicate 1: -0.0414
- robust z-score, replicate 2: -1.26
- robust z-score, replicate 3: 0.433

The list goes on (2 carried over from the part before).
ATAD3A (GeneID 55210)
- robust z-score, replicate 1: -1.09
- robust z-score, replicate 2: -0.79
- robust z-score, replicate 3: -1.19

SPC24 (GeneID 147841)
- robust z-score, replicate 1: -0.0414
- robust z-score, replicate 2: -1.26
- robust z-score, replicate 3: 0.433

TP53 (GeneID 7157)
- robust z-score, replicate 1: -0.721
- robust z-score, replicate 2: -0.827
- robust z-score, replicate 3: -1.07

SEMA6D (GeneID 80031)
- robust z-score, replicate 1: -0.18
- robust z-score, replicate 2: 1.57
- robust z-score, replicate 3: -0.698

FAM174A (GeneID 345757)
- robust z-score, replicate 1: 0.295
- robust z-score, replicate 2: 0.297
- robust z-score, replicate 3: 0.309

GARRE1 (GeneID 9710)
- robust z-score, replicate 1: 1.69
- robust z-score, replicate 2: 1.39
- robust z-score, replicate 3: 0.0431

FBXL19-AS1 (GeneID 283932)
- robust z-score, replicate 1: -1.1
- robust z-score, replicate 2: -1.05
- robust z-score, replicate 3: -1.3

TNNI1 (GeneID 7135)
- robust z-score, replicate 1: 0.165
- robust z-score, replicate 2: -1.56
- robust z-score, replicate 3: 1.12
